Test results published in PMC5996148.
Values joined by “and” are separate entries in the source; they are usually repeats but may differ in a detail not shown here. Equal values may be shown once. The list shows a part of the results.

Legend:
Test in all cases: protein microarray (ProtoArray v5.0), streptavidin-Alexa Fluor 647
Details in all cases: 3'-biotin; 20 mM Tris (pH 7.5), 5 mM MgCl2, 100 mM KCl, 0.1% Tween-20, A/T-rich and random oligonucleotide blockers; temperature not stated; high values mean tight binding
[1] = test system: Protein fuzzy homolog (human)
[2] = test system: Protein phosphatase 1 regulatory subunit 16A (human)
[3] = test system: Protein phosphatase 1L (human)
[4] = test system: Protein phosphatase Slingshot homolog 3 (human)
[5] = test system: Protein reprimo (human)
[6] = test system: Protein ripply1 (human)
[7] = test system: Protein shisa-4 (human)
[8] = test system: Protein transport protein Sec61 subunit alpha isoform 1 (human)
[9] = test system: Protein tyrosine kinase 2 beta (human)
[10] = test system: Protein tyrosine phosphatase receptor type C-associated protein (human)
[11] = test system: Protein tyrosine phosphatase-like protein PTPLAD1 (human)
[12] = test system: Purine nucleoside phosphorylase (human)
[13] = test system: Putative ATP-dependent Clp protease proteolytic subunit, mitochondrial (human)
[14] = test system: Putative DAP-2 like protein C8orf68 (human)
[15] = test system: Putative adenylate kinase 7 (human)
[16] = test system: Putative elongation factor 1-delta-like protein (human)
[17] = test system: Putative protein phosphatase inhibitor 2-like protein 3 (human)
[18] = test system: Putative uncharacterized protein C3orf56 (human)
[19] = test system: Putative uncharacterized protein FLJ45256 (human)
[20] = test system: Putative zinc-alpha-2-glycoprotein-like 1 (human)

GGGAGGCTGAGGCAGG [G4-1 biotinylated (PQS2)]
binding signal [1]: -0.329 z-score
binding signal [2]: -0.322 z-score
binding signal [3]: -0.311 z-score
binding signal [4]: -0.327 z-score and -0.326 z-score and -0.272 z-score
binding signal [5]: -0.332 z-score
binding signal [6]: -0.284 z-score
binding signal [7]: -0.338 z-score
binding signal [8]: -0.295 z-score
binding signal [9]: -0.335 z-score
binding signal [10]: -0.283 z-score
binding signal [11]: -0.282 z-score
binding signal [12]: -0.348 z-score
binding signal [13]: -0.346 z-score
binding signal [14]: -0.24 z-score
binding signal [15]: -0.365 z-score
binding signal [16]: -0.337 z-score
binding signal [17]: -0.355 z-score
binding signal [18]: -0.283 z-score
binding signal [19]: -0.325 z-score
binding signal [20]: -0.285 z-score
